No constants are given. Whether binding was seen depends on the method and setting. Binding seen in cells or lysates may run through a third protein. Some entries that bind do so weakly or less than the wild type.
Assays:
[1] = target: HCV NS2 protein (JFH1) (hepatitis C virus, strain JFH1) (UniProt Q99IB8); assay: co-IP; lysates of 1 million electroporated Huh7.5 cells (72h; parental or p7 ATMI mutant virus, alone or with wild-type p7); 50 mM Tris-Cl pH 7.5, 150 mM NaCl, 1% Nonidet P-40, 1% sodium deoxycholate, 0.1% SDS; rabbit NS2 antibody overnight at 4°C, protein A/G agarose beads; quantitative western blot
[2] = target: HCV E2 glycoprotein (JFH1) (hepatitis C virus, strain JFH1) (UniProt Q99IB8); assay: co-IP; lysates of 1 million electroporated Huh7.5 cells (72h; parental or p7 ATMI mutant virus, alone or with wild-type p7); 50 mM Tris-Cl pH 7.5, 150 mM NaCl, 1% Nonidet P-40, 1% sodium deoxycholate, 0.1% SDS; AR3A antibody against E2 overnight at 4°C, protein A/G agarose beads; quantitative western blot
[3] = target: HCV NS2 protein (JFH1) (hepatitis C virus, strain JFH1) (UniProt Q99IB8); assay: co-IP; cells expressing parental virus (or mutant virus with wild-type p7); 1 million electroporated Huh7.5 cells cross-linked with 1 mM DSP 30 min at room temperature; lysis in 50 mM Tris pH 7.4, 150 mM NaCl, 1 mM EDTA, 0.5% n-dodecyl-β-maltoside; rabbit NS2 antibody, protein A/G agarose beads; quantitative western blot

Chains of the proteins cited; added tags and fusions are not shown. Residues count along the entry.
HCV E2 glycoprotein (JFH1) (Q99IB8, residues 384-750): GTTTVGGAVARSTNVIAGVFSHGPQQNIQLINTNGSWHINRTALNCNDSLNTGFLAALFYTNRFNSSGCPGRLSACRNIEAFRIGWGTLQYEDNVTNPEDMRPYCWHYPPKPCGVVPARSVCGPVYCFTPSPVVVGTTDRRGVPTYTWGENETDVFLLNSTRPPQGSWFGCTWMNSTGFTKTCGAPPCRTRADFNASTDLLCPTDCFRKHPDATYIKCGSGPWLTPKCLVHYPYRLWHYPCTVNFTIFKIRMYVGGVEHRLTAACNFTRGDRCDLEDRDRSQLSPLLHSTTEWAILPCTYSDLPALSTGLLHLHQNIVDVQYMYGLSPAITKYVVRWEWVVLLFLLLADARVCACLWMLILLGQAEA
HCV NS2 protein (JFH1) (Q99IB8, residues 814-1030): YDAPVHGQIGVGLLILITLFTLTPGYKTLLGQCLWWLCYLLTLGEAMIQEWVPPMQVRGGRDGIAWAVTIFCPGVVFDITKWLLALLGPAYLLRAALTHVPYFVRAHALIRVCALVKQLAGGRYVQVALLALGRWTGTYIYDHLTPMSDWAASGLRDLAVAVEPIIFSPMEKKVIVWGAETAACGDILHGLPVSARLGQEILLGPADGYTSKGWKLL
HCV NS5A protein (Q99IB8, residues 1977-2442): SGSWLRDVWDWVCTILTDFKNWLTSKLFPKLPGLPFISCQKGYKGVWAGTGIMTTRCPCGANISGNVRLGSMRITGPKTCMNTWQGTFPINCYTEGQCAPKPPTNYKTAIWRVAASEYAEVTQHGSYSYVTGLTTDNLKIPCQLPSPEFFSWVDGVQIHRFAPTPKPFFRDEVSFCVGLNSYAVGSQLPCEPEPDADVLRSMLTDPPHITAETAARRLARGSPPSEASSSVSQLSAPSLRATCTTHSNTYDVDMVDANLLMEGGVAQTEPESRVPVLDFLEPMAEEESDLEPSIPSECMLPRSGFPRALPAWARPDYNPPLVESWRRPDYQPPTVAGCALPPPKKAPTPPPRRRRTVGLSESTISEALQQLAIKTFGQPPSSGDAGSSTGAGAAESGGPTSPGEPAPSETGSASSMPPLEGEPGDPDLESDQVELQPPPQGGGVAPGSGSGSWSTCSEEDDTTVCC

Substance: HCV E2 glycoprotein (JFH1) (from UniProt Q99IB8 384-750)
- binding [1]: binds

Substance: HCV NS2 protein (JFH1) (from UniProt Q99IB8 814-1030)
- binding [2]: binds

Substance: HCV NS5A protein (from UniProt Q99IB8 1977-2442)
- binding [3]: binds

Source: paper PMC5749900
